Assay results reported in PubChem BioAssay AID1688 (National Center for Advancing Translational Sciences (NCATS), 2009).
Several values for one entry are separate records, joined by “and”; a condition that tells them apart may be missing. Identical values can stand only once. Screen size: about 220,000 compounds; about 2,400 (1.1%) were called active. This list was built around the results that the source calls inconclusive (neither active nor inactive); the mix of calls is not that of the screen. The call rests on the fitted dose curve; in most records, active means well fitted inhibition curve with a large enough effect; inconclusive means small, poorly fitted or top-dose-only effect, or effect the other way; inactive means no such curve, though single readings can be large or run the other way. Potencies beside an inconclusive call are fits to weak or partial responses and may not hold up.

Experiment: qHTS Multiplex Assay to Identify Dual Action Probes in a Cell Model of Huntington: Aggregate Formation (GFP); further: nearly all actives have a fitted effect of over 60% in size
Conditions: PC12 HttQ103-GFP aggregates, Acumen cytometry, 40 h; activity change, negative = inhibition: at 46.1 µM (top of the series) unless noted
Method in brief: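 PC12/HTTQ103-GFP, ecdysone-inducible; teb 100 nM; cpd qHTS titration; GFP aggregates read on laser cytometer, Ex 488/Em 500-530 nm.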
On the % scale 0 is the no-effect control and ±100 the full control effect; potency means the concentration at half of the fitted maximal effect.

SMILES	Potency	activity change, negative = inhibition
Cc1ccc(C2c3sc(=O)[nH]c3SC3C4CC(C5C(=O)N(C(C)C(=O)O)C(=O)C45)C23)cc1 (centres undefined)	inactive	
COc1ccc(C(=O)N/N=C/c2ccccn2)cc1OC	inconclusive: 11.2 µM [inhibitor, single point]	
CCOC(=O)C1(Cc2ccccc2)CCN(Cc2ccc(COC)o2)CC1	inconclusive: 28.2 µM [inhibitor, partial curve]	
O=[N+]([O-])c1cc(Cc2ccccc2)cc(C=Nc2ccc(N3CCOCC3)cc2)c1O	inactive	
CC1CN(C(=O)c2ccccc2)C(=Nc2cccc(S(=O)(=O)N(C)C)c2)S1 (centres undefined)	inconclusive: 35.5 µM [inhibitor, single point]	
CCN(CC)S(=O)(=O)c1cccc(C(=O)N/N=C/c2cccc(O)c2O)c1	inconclusive: 0.631 µM [inhibitor, full curve, poor fit]	
COc1ccc(C(=O)Nc2cc(Cl)ccc2OC(=O)c2ccc(OC)cc2)cc1	inactive	
COc1cccc(NC(=O)/C=C/c2ccco2)c1	inactive	
COc1ccccc1N(C)S(=O)(=O)c1ccc(C(=O)NCc2ccc3c(c2)OCO3)cc1	inconclusive: 35.5 µM [inhibitor, single point]	
O=C(CCSc1nc2ccccc2o1)N1CCOCC1	inconclusive: 1.26 µM [inhibitor, single point]	
CC(C)Cc1csc(NC(=O)c2ccc(Cl)cc2)c1C(=O)O	active: 22.4 µM	
COc1ccc(-c2c(C)c3ccc(OCC(C)=O)cc3oc2=O)cc1	inconclusive: 35.5 µM [inhibitor, single point]	
C=CCNC(=S)Nc1sc2c(c1C(=O)OCC)CC(C(C)C)OC2 (centres undefined)	inconclusive: 12.6 µM [inhibitor, partial curve]	
CC(=O)NS(=O)(=O)c1ccc(NC(=O)c2ccccc2F)cc1	inactive	
O=C(Oc1ccccc1/C=C\C(=O)c1cc2ccccc2o1)c1ccccc1	inconclusive: 35.5 µM [inhibitor, single point]	
CCCCCN=Cc1c(C)[nH]n(-c2nc3ccccc3s2)c1=O	inactive	
Cc1ccc(-c2nc(SCC(=O)Nc3cc(S(=O)(=O)N4CCCCC4)ccc3Cl)n[nH]2)cc1	inconclusive: 22.4 µM [inhibitor, single point]	
COc1ccc2nc(Nc3nc(CSc4nnnn4-c4ccccc4)cc(=O)[nH]3)nc(C)c2c1		inactive: 25.6% [at 9.22 µM]
Cc1cc(SCC(=O)N/N=C/c2ccc(O)c(O)c2O)c(C)cc1Br	inconclusive: 35.5 µM [inhibitor, single point]	
CCc1ccc2[nH]c(=O)c(C(c3nnnn3CCOC)N3CCN(c4ccc(F)cc4)CC3)cc2c1 (centres undefined)	inconclusive: 35.5 µM [inhibitor, single point]	
N#Cc1c(N)sc(=S)c2c1CCN(Cc1ccccc1)C2	inactive	
CC(NC(=O)Nc1cccc([N+](=O)[O-])c1)(C(F)(F)F)C(F)(F)F	inconclusive: 35.5 µM [inhibitor, single point]	
OC1(c2ccc(OC(F)F)cc2)CSC(=Nc2cccnc2)N1C1CC1 (centres undefined)	inconclusive: 11.2 µM [inhibitor, partial curve]	

SMILES	Potency	activity change, negative = inhibition
O=C(O)[C@H]1C[C@@H](CP(=O)(O)O)CCN1	inactive	
CCOC(=O)CC(=O)CSc1nc(C)nc2c1oc1ccccc12	active: 1.12 µM	
CCc1ccc(N2CC(C(=O)Nc3ccc(C)c(S(=O)(=O)N4CCOCC4)c3)CC2=O)cc1 (centres undefined)	inconclusive: 35.5 µM [inhibitor, single point]	
Cc1ccc(-c2nn(-c3ccccc3)cc2NC(=O)CCl)cc1	inconclusive: 17.8 µM [inhibitor, single point]	
COCCNC(=S)N(CCc1c(C)[nH]c2ccc(Cl)cc12)Cc1cccs1	inconclusive: 28.2 µM [inhibitor, single point]	
Cc1coc2c1C(=O)C(=O)c1c-2ccc2c(C)cccc12		inactive: -20.4% [at 9.22 µM]
c1ccc2c(c1)OCC(c1csc3ncnc(N4CCCCC4)c13)O2 (centres undefined)	active: 11.2 µM	
O=C(Nc1ccc(Cl)cc1)C1CCC(=O)N1Cc1ccccc1Cl (centres undefined)	inconclusive: 11.2 µM [activator, partial curve]	
NC(=O)c1oc2ccccc2c1NC(=O)C1CCCCC1	inconclusive: 6.31 µM [inhibitor, single point]	
CCCn1c(SCC(=O)Nc2ccc(C)c(S(=O)(=O)N3CCOCC3)c2)n[nH]c1=O	inconclusive: 3.55 µM [inhibitor, single point]	
Cc1cccc(N2C(=O)/C(=C\c3ccc(OC(F)F)cc3)c3ccccc3C2=O)c1	inconclusive: 31.6 µM [activator, single point]	
O=C(O)c1ccccc1-c1ccc(C(F)(F)F)cc1	inactive	
CCN(c1ccccc1)S(=O)(=O)c1ccc(C(=O)Nc2nnc(C3CC3)o2)cc1	inconclusive: 11.2 µM [inhibitor, single point]	
Nc1c(C=C2C=CC(=O)C=C2)c(=O)nc2snc(SCc3ccccc3)n12		inactive: 11.4% [at 9.22 µM]
Cc1cc(C)c2nc(N3CCCN(C(=O)c4cnccn4)CC3)c(C#N)cc2c1	inconclusive: 28.2 µM [activator, single point]	
CC(C)(C)C1CCc2sc(-c3nnc(CCl)o3)cc2C1 (centres undefined)	inactive	
CN(c1ccc(OCC(=O)OCC(=O)c2c(N)n(C)c(=O)n(C)c2=O)cc1)S(=O)(=O)c1ccc2ccccc2c1	inconclusive: 6.31 µM [activator, partial curve]	
Cc1ncc(CO)c(/C=N/NC(=O)c2cc3c(s2)CCCC3)c1O	inconclusive: 3.16 µM [inhibitor, full curve]	
COc1cccc2c1C(=O)C=C(C)C2=O	active: 14.1 µM	
Cc1ccccc1OCCCN1C(=O)C(=O)c2cccc(C)c21	inactive	
COc1ccc(C2=NN(C(N)=S)C(c3ccccc3)C2)cc1 (centres undefined)	inactive	
Clc1ccccc1Nc1nnc(-c2ccncc2)s1	inconclusive: 35.5 µM [inhibitor, single point]	
COc1ccc(C(=O)Nc2cccc(-c3nc4ncccc4o3)c2C)cc1OC	inconclusive: 6.31 µM [inhibitor, partial curve]	

SMILES	Potency	activity change, negative = inhibition
Cc1ccc(C)c(-n2c(=O)c(C#N)cc3c(=O)n4ccccc4nc32)c1	inconclusive: 15.8 µM [inhibitor, single point]	
CCCc1nc(NCc2ccccc2)c(C#N)c2c1CCCC2	inconclusive: 11.2 µM [activator, partial curve]	
Cc1ccc(NC(=S)N2CCn3cccc3C2c2cccnc2)cc1 (centres undefined)	inconclusive: 1.12 µM [activator, single point]	
C=CCN1C(=O)N/C(=C/c2ccc(C)o2)C1=O	inconclusive: 22.4 µM [inhibitor, single point]	
CC(=O)n1cc(-c2ccncc2)c2ccccc21	inconclusive: 14.1 µM [inhibitor, single point]	
O=C(c1ccc2ccccc2c1)N1CCN(c2ccc([N+](=O)[O-])c(N3CCOCC3)c2)CC1	inconclusive: 8.91 µM [inhibitor, partial curve]	
COc1ccc(-c2[nH]c(-c3ccccc3)nc2SCC(=O)Nc2nccs2)cc1	inactive	
CCCCCc1cc(=O)oc2c(C(CCN3CCCCC3)c3ccc4c(c3)OCO4)c(OC)cc(OC)c12 (centres undefined)		inactive: -14.7% [at 9.22 µM]
O=c1c2ccccc2c(C=NCc2ccccn2)c(O)n1-c1ccccc1	inactive	
CC(C)(C)OC(=O)N/N=C/c1ccc(N2CCOCC2)s1	inactive	
Cc1ccc(N2C(=N)/C(=C3/Nc4ccccc4S3)C(c3ccccc3)C2=O)cc1 (centres undefined)	inconclusive: 1.12 µM [activator, partial curve]	
COc1ccc(Cc2c(O)nc(SCC(=O)NC34CC5CC(CC(C5)C3)C4)[nH]c2=O)cc1	inconclusive: 35.5 µM [activator, partial curve, poor fit]	
CSCCOC(=O)c1[nH]c2c(c1C)C(=O)CC(c1ccco1)C2 (centres undefined)	inactive	
CCn1c(=O)c(C(=O)NCc2ccc(OC)c(OC)c2)c(O)c2ccccc21	inconclusive: 35.5 µM [inhibitor, single point]	
CC(=O)c1cccc(NS(=O)(=O)c2ccc(N/C=C\C(=O)c3ccc(F)cc3)cc2)c1	active: 10 µM	
COc1cccc(-c2nn(C)c3sc(C(=O)N4CCN(c5ccccn5)CC4)cc23)c1	inconclusive: 35.5 µM [inhibitor, single point]	
COc1ccccc1NS(=O)(=O)c1ccc(NN=C2CCCC2)c([N+](=O)[O-])c1	inconclusive: 14.1 µM [inhibitor, partial curve, poor fit]	
CCCCOc1cc(C(=O)NCCN(CC)CC)c2ccccc2n1	inactive and inconclusive: 35.5 µM [inhibitor, single point]	
CC(=O)c1ccc(NC(=O)COC(=O)c2ccccc2N=Nc2ccc(N(C)C)cc2)cc1	inconclusive: 5.62 µM [inhibitor, single point]	
CN(C)c1ccc(NC2=C(Cl)C(=O)c3ccccc3C2=O)cc1	active: 14.1 µM	
Cc1cc[n+](C2=C([O-])c3ccccc3C(=O)/C2=N\S(=O)(=O)c2cccs2)cc1C	active: 10 µM	
COC(=O)c1ccc2nc(NC(=O)C(C)(C)C)sc2c1	inactive	
CCOc1cc(/C=C2\C(=O)N(Cc3ccc(C)cc3)C(C)=C2C(=O)OC)ccc1O	inconclusive: 22.4 µM [activator, partial curve]	
